The target in experiment [1] is T1, Sp Cnd2_(416–544) (S. pombe) (UniProt Q9Y7R3).
T1 sequence: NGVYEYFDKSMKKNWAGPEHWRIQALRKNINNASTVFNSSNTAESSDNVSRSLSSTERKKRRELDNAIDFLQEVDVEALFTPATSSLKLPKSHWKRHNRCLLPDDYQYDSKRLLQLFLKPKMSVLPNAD
As to the kind of experiment: crystal structure; Sp Cnd3–Cnd2 subcomplex without DNA; hanging-drop vapor diffusion at 7°C; selenomethionine-labeled and native crystals; both purified.

Experiment [2] concerns the target T2, Sc Brn1_(384–529) (S. cerevisiae) (UniProt P38170).
T2 sequence: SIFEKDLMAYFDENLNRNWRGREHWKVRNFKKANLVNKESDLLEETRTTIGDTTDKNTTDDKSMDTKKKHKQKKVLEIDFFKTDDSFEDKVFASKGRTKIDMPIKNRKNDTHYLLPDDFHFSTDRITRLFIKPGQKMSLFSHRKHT
As to the kind of experiment: crystal structure; Sc Ycg1–Brn1 subcomplex without DNA; hanging-drop vapor diffusion at 20°C; both purified.

The target in experiment [3] is T3, Sc Brn1_(short kleisin loop) (384-417, 445-529) (S. cerevisiae) (UniProt P38170).
T3 sequence: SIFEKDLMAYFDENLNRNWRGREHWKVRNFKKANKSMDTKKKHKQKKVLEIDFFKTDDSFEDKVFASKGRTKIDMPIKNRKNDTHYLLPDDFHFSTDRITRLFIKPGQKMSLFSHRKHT
As to the kind of experiment: crystal structure; Sc Ycg1–Brn1 subcomplex with a palindromic 18-bp dsDNA (1.2-fold molar excess); sitting drop at 7°C; crystal forms I and II and the short kleisin loop construct; both purified.

Experiment [4] has as its target T2, Sc Brn1_(384–529) (S. cerevisiae). The experiment is described as above.
The target in experiment [5] is T4, Sc Brn1-PK6 (S. cerevisiae) (UniProt P38170).
T4 sequence: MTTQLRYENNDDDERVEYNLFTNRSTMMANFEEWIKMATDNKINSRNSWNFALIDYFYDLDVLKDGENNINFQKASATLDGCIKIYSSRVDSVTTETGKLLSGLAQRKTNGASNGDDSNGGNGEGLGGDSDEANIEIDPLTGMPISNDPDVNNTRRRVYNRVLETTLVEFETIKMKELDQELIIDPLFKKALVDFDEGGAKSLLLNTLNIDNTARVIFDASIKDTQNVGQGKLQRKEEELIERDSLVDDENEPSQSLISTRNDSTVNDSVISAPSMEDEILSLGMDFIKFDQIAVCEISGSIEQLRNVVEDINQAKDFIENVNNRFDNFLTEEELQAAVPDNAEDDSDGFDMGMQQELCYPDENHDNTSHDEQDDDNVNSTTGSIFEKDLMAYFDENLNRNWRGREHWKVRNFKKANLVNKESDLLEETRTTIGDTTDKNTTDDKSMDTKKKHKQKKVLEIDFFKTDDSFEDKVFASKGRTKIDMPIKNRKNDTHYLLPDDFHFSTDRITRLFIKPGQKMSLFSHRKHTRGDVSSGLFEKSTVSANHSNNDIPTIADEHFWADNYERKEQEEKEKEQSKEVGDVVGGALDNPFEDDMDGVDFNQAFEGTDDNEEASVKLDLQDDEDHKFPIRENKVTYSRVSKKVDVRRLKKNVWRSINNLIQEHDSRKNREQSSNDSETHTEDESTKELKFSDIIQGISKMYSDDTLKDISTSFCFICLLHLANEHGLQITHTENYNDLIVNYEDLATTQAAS
As to the kind of experiment: co-IP; anti-PK (V5) antibody on protein A Dynabeads, lysates of yeast strains with Brn1-PK6; 50 mM TRIS–HCl pH 8.0, 100 mM NaCl, 0.25% Triton X-100; Coomassie staining or western blotting against Ycg1 or the PK6 tag. For orientation: In western blotting, separated proteins are transferred to a membrane and probed.

Experiment [6] addresses T5, Sc Brn1_(BC1/2)-PK6 (S. cerevisiae) (UniProt P38170).
T5 sequence: T4 sequence with K409D, R411D, K414D, K451D, K452D, K454D, K456D, K457D
The experiment is described as above.

Changes are numbered by the printed parent chain. These are yes or no findings as the source states them, for the method shown. For part of these data: Binding seen in cells or lysates may run through a third protein. Some entries that bind do so weakly or less than the wild type.

B1: Sp Cnd3_(1–438, 474–823) (domain or fragment, UniProt Q10429)
chain: MSCIQIISSSQTSIAGHRKLCNKLFTLRTQEGFETDILRALNIILTVKKGNSNADRVLRFLVTFVNYLQQKDPEIDIVQPILKHILRGLDAKDKTVRYRCCQIIARVVNCVKEIDDDLYNTLKEKLLSRVLDRESIVRLEAVVALSRLQEDTGDEENDVRNILLFLLQNDPSSEVRRSVLLNIEVSNSTLPFILERARDVDAANRKCVYARVLPKIGDFRYLSIKKRVRILKWGLNDRDESVEKAAADMLAYQWIENADNNLLELLERLDVSNNSDVAVLAIKKFFDVRVDSLSQLEFPEQFWLELTAESSLLARTFNEICIEKNYTDLLDKMPEVVQLTYYIERQYVSLRDKSSYDESCFIIEQLLYIGLSQDMVDEIGRRKLLKSLTNSLSTMALPDSLISLHIELLRKLCSSENDFCSLLVEIITEVFEQGHSQNPNELNEPEPDDMDGYKEAFNELRCLSYVQCLFENITSSLNENLYMVDMLKTLIIPAVRSHDLPIREKGLECLSLVCLLNADLAFENVPLYLHCYEKGSVVLKCTAIRTLTDMLIQHGKAKFTEYEDAISSILFEALGEFENAELQTLGAEAIAKLLVILHYRDELFLKPLIIQYFEPNTVDNHALRQVLGYFFPVYAFGAHENQWRIATIFCDALLSLLEIYRDLDEDDVQLSIGHIAQQMLDWTDNEKLYERKTQTGDDYIALNHNVHLHLANMIFESLPNASEGKERKFMISLLGKLKIPTDLPSSDYQRTKRKLETYESHGFTMDSTSLSILAKFERMLLQNEEARS
For the molecule B1, the binding result in experiment [1] is reported as “binds”.

B2: Sc Ycg1_(6–498, 556–932) (domain or fragment, UniProt Q06680)
chain: GIDINTKIFNSVAEVFQKAQGSYAGHRKHIAVLKKIQSKAVEQGYEDAFNFWFDKLVTKILPLKKNEIIGDRIVKLVAAFIASLERELILAKKQNYKLTNDEEGIFSRFVDQFIRHVLRGVESPDKNVRFRVLQLLAVIMDNIGEIDESLFNLLILSLNKRIYDREPTVRIQAVFCLTKFQDEEQTEHLTELSDNEENFEATRTLVASIQNDPSAEVRRAAMLNLINDNNTRPYILERARDVNIVNRRLVYSRILKSMGRKCFDDIEPHIFDQLIEWGLEDRELSVRNACKRLIAHDWLNALDGDLIELLEKLDVSRSSVCVKAIEALFQSRPDILSKIKFPESIWKDFTVEIAFLFRAIYLYCLDNNITEMLEENFPEASKLSEHLNHYILLRYHHNDISNDSQSHFDYNTLEFIIEQLSIAAERYDYSDEVGRRSMLTVVRNMLALTTLSEPLIKIGIRVMKSLSINEKDFVTMAIEIINDIRDDDIEKQESESDIINNLPPEKEASSATIVLCLTRSSYMLELVNTPLTENILIASLMDTLITPAVRNTAPNIRELGVKNLGLCCLLDVKLAIDNMYILGMCVSKGNASLKYIALQVIVDIFSVHGNTVVDGEGKVDSISLHKIFYKVLKNNGLPECQVIAAEGLCKLFLADVFTDDDLFETLVLSYFSPINSSNEALVQAFAFCIPVYCFSHPAHQQRMSRTAADILLRLCVLWDDLQSSVIPEVDREAMLKPNIIFQQLLFWTDPRNLVNQTGSTKKDTVQLTFLIDVLKIYAQIEKKEIKKMIITNINAIFLSSEQDYSTLKELLEYSDDIAENDNLDNVSKNALDKLRNNLNSLIEEINERSETQTKDENNTANDQYSSILGN
With B2, the binding result in experiment [2], in experiment [3] and in experiment [4] was “binds” throughout.

B3: Sc Ycg1 (endogenous) (protein, UniProt Q06680 1-1035)
chain: MQDPDGIDINTKIFNSVAEVFQKAQGSYAGHRKHIAVLKKIQSKAVEQGYEDAFNFWFDKLVTKILPLKKNEIIGDRIVKLVAAFIASLERELILAKKQNYKLTNDEEGIFSRFVDQFIRHVLRGVESPDKNVRFRVLQLLAVIMDNIGEIDESLFNLLILSLNKRIYDREPTVRIQAVFCLTKFQDEEQTEHLTELSDNEENFEATRTLVASIQNDPSAEVRRAAMLNLINDNNTRPYILERARDVNIVNRRLVYSRILKSMGRKCFDDIEPHIFDQLIEWGLEDRELSVRNACKRLIAHDWLNALDGDLIELLEKLDVSRSSVCVKAIEALFQSRPDILSKIKFPESIWKDFTVEIAFLFRAIYLYCLDNNITEMLEENFPEASKLSEHLNHYILLRYHHNDISNDSQSHFDYNTLEFIIEQLSIAAERYDYSDEVGRRSMLTVVRNMLALTTLSEPLIKIGIRVMKSLSINEKDFVTMAIEIINDIRDDDIEKQEQEEKIKSKKINRRNETSVDEEDENGTHNDEVNEDEEDDNISSFHSAVENLVQGNGNVSESDIINNLPPEKEASSATIVLCLTRSSYMLELVNTPLTENILIASLMDTLITPAVRNTAPNIRELGVKNLGLCCLLDVKLAIDNMYILGMCVSKGNASLKYIALQVIVDIFSVHGNTVVDGEGKVDSISLHKIFYKVLKNNGLPECQVIAAEGLCKLFLADVFTDDDLFETLVLSYFSPINSSNEALVQAFAFCIPVYCFSHPAHQQRMSRTAADILLRLCVLWDDLQSSVIPEVDREAMLKPNIIFQQLLFWTDPRNLVNQTGSTKKDTVQLTFLIDVLKIYAQIEKKEIKKMIITNINAIFLSSEQDYSTLKELLEYSDDIAENDNLDNVSKNALDKLRNNLNSLIEEINERSETQTKDENNTANDQYSSILGNSFNKSSNDTIEHAADITDGNNTELTKTTVNISAVDNTTEQSNSRKRTRSEAEQIDTSKNLENMSIQDTSTVAKNVSFVLPDEKSDAMSIDEEDKDSESFSEVC
As to B3, the binding result in experiment [5] and in experiment [6] was “binds” in each case.

For the origin of these results see publication PMC5651216, “Structural Basis for a Safety-Belt Mechanism That Anchors Condensin to Chromosomes”.
